At least one compound was matched to its structure with a doubt left.
Experiments:
AD-transgenic mice = assay: Cerebral blood flow (CBF) by arterial spin label MRI in AD-transgenic mice; assay type: in vivo, mouse
[1] = system: LDL-receptor knockout mice (LDLr−/−) fed a high-fat diet; assay: Cerebral blood flow (CBF) in LDL-receptor knockout mice fed a high-fat diet (atherosclerosis model); assay type: in vivo, mouse
[2] = system: LDL-receptor knockout mice (LDLr−/−) fed a high-fat diet; assay: Morris Water Maze in LDLr−/− mice fed a high-fat diet; assay type: in vivo, mouse
aged rats [3] = assay: Cerebral blood flow (CBF) in aged rats; assay type: in vivo, rat
aged rats [4] = assay: Morris Water Maze task in aged rats; assay type: in vivo, rat; details: rapamycin-treated aged rats
symptomatic AD mice = assay: Chronic rapamycin treatment after disease onset in symptomatic AD mice; assay type: in vivo, mouse
[5] = LDLr−/− mice fed a high-fat diet, fed rapamycin
[6] = 32 month-old rats fed rapamycin for 16 weeks, vs untreated aged rats

CO[C@H]1C[C@@H]2CC[C@@H](C)[C@@](O)(O2)C(=O)C(=O)N2CCCC[C@H]2C(=O)O[C@H]([C@H](C)C[C@@H]2CC[C@@H](O)[C@H](OC)C2)CC(=O)[C@H](C)/C=C(\C)[C@@H](O)[C@@H](OC)C(=O)[C@H](C)C[C@H](C)/C=C/C=C/C=C/1C [Rapamycin]
CBF (AD-transgenic mice; AD-like transgenic mice, encapsulated rapamycin 14 ppm in feed, ASL MRI): significantly enhanced
global CBF (AD-transgenic mice; mice modeling AD): significantly improves
hippocampal CBF (AD-transgenic mice; mice modeling AD): significantly improves
global CBF ([1]; LDLr−/− mice): significantly improves
hippocampal CBF ([1]; LDLr−/− mice): significantly improves
CBF in whole brain [1, 5]: increased
CBF ([1]; high-fat diet LDL knockout mice): significantly enhanced
performance in the Morris Water Maze [2, 5]: improved
spatial memory deficits ([2]; chronic rapamycin treatment, mice modeling atherosclerosis): ameliorate
cortical CBF (aged rats [3]; [6]): improved
global CBF (aged rats [3]; [6]): improved
hippocampal CBF (aged rats [3]; [6]): improved
CBF (aged rats [3]; old rats, 32 months of age, 14 ppm rapamycin in feed): restored
spatial learning (Morris Water Maze task) (aged rats [4]): improved
amyloid burden (symptomatic AD mice): decreased
brainvascular breakdown (symptomatic AD mice): negated
cerebral amyloid angiopathy (symptomatic AD mice): reduced
cognitive function (symptomatic AD mice): improved
endothelial nitric oxide synthase (eNOS) in vascular endothelium (symptomatic AD mice): activation
microhemorrhages (symptomatic AD mice): reduced

Reference: patent publication US20160022649A1, “USE OF INHIBITORS OF MTOR TO IMPROVE VASCULAR FUNCTIONS IN APOE4 CARRIERS” (THE BOARD OF REGENTS OF THE UNIVERSITY OF TEXAS SYSTEM, priority 2013, published 2016)
